Data on one substance can be found in article PMC10590414.

Amino acid sequences for entries named in this document (tags omitted). A change or cut given only in a name is not applied to a line headed by its entry.
UniProt P35222: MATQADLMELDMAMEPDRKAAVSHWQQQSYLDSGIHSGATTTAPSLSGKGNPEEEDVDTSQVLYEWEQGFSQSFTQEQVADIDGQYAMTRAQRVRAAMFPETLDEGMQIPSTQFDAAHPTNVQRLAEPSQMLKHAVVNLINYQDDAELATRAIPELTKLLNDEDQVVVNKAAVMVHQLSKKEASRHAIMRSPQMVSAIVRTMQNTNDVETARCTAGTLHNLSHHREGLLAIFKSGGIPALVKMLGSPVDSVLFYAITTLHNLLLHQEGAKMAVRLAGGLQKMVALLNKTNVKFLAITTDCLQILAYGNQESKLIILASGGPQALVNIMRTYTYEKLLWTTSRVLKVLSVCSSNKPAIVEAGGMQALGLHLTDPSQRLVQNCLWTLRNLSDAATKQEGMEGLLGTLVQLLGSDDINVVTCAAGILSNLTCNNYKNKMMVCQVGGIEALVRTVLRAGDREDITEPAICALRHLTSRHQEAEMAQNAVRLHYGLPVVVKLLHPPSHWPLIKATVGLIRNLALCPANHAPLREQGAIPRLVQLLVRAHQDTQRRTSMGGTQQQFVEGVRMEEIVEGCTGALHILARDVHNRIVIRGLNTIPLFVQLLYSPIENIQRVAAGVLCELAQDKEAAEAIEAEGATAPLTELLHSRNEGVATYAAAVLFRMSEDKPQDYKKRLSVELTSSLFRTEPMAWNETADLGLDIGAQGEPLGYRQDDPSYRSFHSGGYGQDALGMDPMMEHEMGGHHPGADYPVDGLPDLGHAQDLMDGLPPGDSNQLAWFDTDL
UniProt Q9Y397: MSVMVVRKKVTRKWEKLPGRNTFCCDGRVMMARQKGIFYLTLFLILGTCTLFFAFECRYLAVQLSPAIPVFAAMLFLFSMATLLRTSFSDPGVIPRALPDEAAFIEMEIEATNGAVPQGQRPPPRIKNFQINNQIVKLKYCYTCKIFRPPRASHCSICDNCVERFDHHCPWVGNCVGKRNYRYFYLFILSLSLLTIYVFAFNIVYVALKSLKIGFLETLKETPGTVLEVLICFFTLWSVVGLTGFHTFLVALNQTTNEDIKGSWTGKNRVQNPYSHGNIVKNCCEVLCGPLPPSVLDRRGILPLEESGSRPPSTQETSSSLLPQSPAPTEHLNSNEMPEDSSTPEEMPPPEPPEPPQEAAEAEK

No constants are given. Whether binding was seen depends on the method and setting. Binding calls can cover weak binding; strength is not graded here.

The assay addresses Recombinant Human β-catenin protein (human) (UniProt P35222). Put plainly: pull-down; GST pull-down: His-tagged purified protein (200 ng) mixed with GST fusion protein (100 ng) in 50 mM Tris-HCl pH 7.5, 1% Triton X-100, 150 mM NaCl, 1 mM DTT, 0.5 mM EDTA for 1 h, glutathione agarose 30 min at 4 °C, immunoblot; both purified. A general note: A western blot detects proteins with antibodies after separation by electrophoresis.

For the substance “Recombinant Human DHHC9 protein (from UniProt Q9Y397) (enzyme)”, the binding result is reported as “binds”.
